One molecule from ChEMBL document CHEMBL5584300, “Bioinformatic Approaches Identify Hybrid Antibiotics against Tuberculosis via d-Amino Acid-Activating Adenylation Domains from Cordyceps militaris” (J Nat Prod, 2024) can be followed below.

The assay relates to Escherichia coli. As to the kind of experiment: Antibacterial activity against Escherichia coli ATCC 25922 assessed as reduction in microbial growth incubated for 20 hrs by CLSI based broth microdilution method. The assay is classed as functional. (In broth dilution the organism is exposed to a series of concentrations in liquid medium.)

A word on the MIC: it is the lowest concentration found to suppress growth.

On to `CC1(C)S[C@@H]2[C@H](NC(=O)[C@H](N)c3ccccc3)C(=O)N2[C@H]1C(=O)O` [AMPICILLIN], for which the MIC came out at 8 µg/mL.
